Laboratory results published in patent US12605653B2, “Anionic switchable hydrophilicity solvents” (QUEEN'S UNIVERSITY AT KINGSTON, priority 2022, dated 2026).

Test: Removal of motor oil from contaminated bottles with ASHS
Conditions: first cycle; 10 bar of CO2; 0.63 mol NaOH per mol EHA, 2.5 g water per g EHA

CCCCC(CC)C(=O)O (stereo not shown) [EHA, 2-ethylhexanoic acid]
carboxylic acid recovered, of initial amount: 73%
